Reference: the supplement of paper PMC8728848
Some of the results follow.

Experiments:
Experiment in all cases: glycan array binding signal (z-score within array); higher = stronger binding
Settings in all cases: glycan notation: IUPAC condensed, linker removed
[1] = target: Gal(b1-4)GlcNAc(b1-3)Gal(b1-4)GlcNAc(b1-3)[Gal(b1-4)GlcNAc(b1-3)Gal(b1-4)GlcNAc(b1-6)]GalNAc
Method in brief: (§1)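 Negative Z-scores can be read as non-binding. The Z-score is calculated within each array and then averaged across arrays of one protein sequence at different concentrations or buffers and across linkers. Arrays, 3228 in all, were curated from the Consortium for Functional Glycomics database and kept only where the protein sequence was available.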

[2] = target: Gal(b1-4)GlcNAc(b1-3)Gal(b1-4)GlcNAc(b1-6)[Gal(b1-3)]GalNAc
Method in brief: as §1

[3] = target: Gal(b1-4)GlcNAc(b1-3)Gal(b1-4)[Fuc(a1-3)]GlcNAc(b1-3)Gal(b1-4)[Fuc(a1-3)]GlcNAc
Method in brief: as §1

[4] = target: Gal(b1-4)GlcNAc(b1-3)GalNAc
Method in brief: as §1

[5] = target: Gal(b1-4)GlcNAc(b1-3)[Fuc(a1-3)GlcNAc(b1-6)]Gal(b1-4)Glc
Method in brief: as §1

[6] = target: Gal(b1-4)GlcNAc(b1-3)[Gal(b1-4)GlcNAc(b1-6)]Gal(b1-4)GlcNAc
Method in brief: as §1

[7] = target: Gal(b1-4)GlcNAc(b1-3)[GlcNAc(b1-6)]Gal(b1-4)GlcNAc
Method in brief: as §1

[8] = target: Gal(b1-4)GlcNAc(b1-6)Gal(b1-4)GlcNAc
Method in brief: as §1

[9] = target: Gal(b1-4)GlcNAc(b1-6)GalNAc
Method in brief: as §1

[10] = target: Gal(b1-4)GlcNAc(b1-6)[Gal(b1-3)]GalNAc
Method in brief: as §1

[11] = target: Gal(b1-4)GlcNAc(b1-6)[Gal(b1-4)GlcNAc(b1-3)]GalNAc
Method in brief: as §1

Gal(b1-4)GlcNAc6P = target: Gal(b1-4)GlcNAc6P
Method in brief: as §1

Gal(b1-6)Gal = target: Gal(b1-6)Gal
Method in brief: as §1

Gal3S(b1-3)GalNAc = target: Gal3S(b1-3)GalNAc
Method in brief: as §1

Gal3S(b1-3)GlcNAc = target: Gal3S(b1-3)GlcNAc
Method in brief: as §1

[12] = target: Gal3S(b1-3)[Fuc(a1-4)]GlcNAc
Method in brief: as §1

Gal3S(b1-4)Glc = target: Gal3S(b1-4)Glc
Method in brief: as §1

Gal3S(b1-4)Glc6S = target: Gal3S(b1-4)Glc6S
Method in brief: as §1

Gal3S(b1-4)GlcNAc = target: Gal3S(b1-4)GlcNAc
Method in brief: as §1

[13] = target: Gal3S(b1-4)[Fuc(a1-3)]Glc6S
Method in brief: as §1

[14] = target: Gal3S(b1-4)[Fuc(a1-3)]GlcNAc
Method in brief: as §1

[15] = target: Gal3S(b1-4)[Fuc(a1-3)]GlcNAc6S
Method in brief: as §1

Gal3S4S(b1-4)GlcNAc = target: Gal3S4S(b1-4)GlcNAc
Method in brief: as §1

Gal3S6S(b1-4)GlcNAc = target: Gal3S6S(b1-4)GlcNAc
Method in brief: as §1

Gal3S6S(b1-4)GlcNAc6S = target: Gal3S6S(b1-4)GlcNAc6S
Method in brief: as §1

Gal4S(b1-4)GlcNAc = target: Gal4S(b1-4)GlcNAc
Method in brief: as §1

Gal4S6S(b1-4)GlcNAc = target: Gal4S6S(b1-4)GlcNAc
Method in brief: as §1

Gal6P(b1-4)GlcNAc = target: Gal6P(b1-4)GlcNAc
Method in brief: as §1

Gal6S(b1-3)GlcNAc = target: Gal6S(b1-3)GlcNAc
Method in brief: as §1

Gal6S(b1-3)GlcNAc6S = target: Gal6S(b1-3)GlcNAc6S
Method in brief: as §1

Gal6S(b1-4)Glc = target: Gal6S(b1-4)Glc
Method in brief: as §1

Gal6S(b1-4)Glc6S = target: Gal6S(b1-4)Glc6S
Method in brief: as §1

Gal6S(b1-4)GlcNAc = target: Gal6S(b1-4)GlcNAc
Method in brief: as §1

Gal6S(b1-4)GlcNAc6S = target: Gal6S(b1-4)GlcNAc6S
Method in brief: as §1

GalNAc(a1-3)Gal = target: GalNAc(a1-3)Gal
Method in brief: as §1

GalNAc(a1-3)GalNAc = target: GalNAc(a1-3)GalNAc
Method in brief: as §1

[16] = target: GalNAc(a1-3)GalNAc(b1-3)Gal(a1-4)Gal(b1-4)Glc
Method in brief: as §1

B1: Epa11 (Candida glabrata) (protein)
chain: MGSSHHHHHHSSGLVPRGSHMASSNAPNYPVGCSPSVGTQLTPGLSLEVYAYPMDGNNGYCWNATYKDPEFPRSGYLKNKLLGKADGVVGPLNFLAKNKDCSPKVDTLPAGFNFPQPITVTNFTMVLFGYLAPKQSGKYTFKLLADDLLLLNLGATNAFDCCNREATKNNLGEFLAYNLWPNQDKNVTVYLEKGVYYPLRLFFNNRDGGSQLDFSYYFNDSPAPLTDFSGMFFSVPDGAECPARI
glycan array binding signal (z-score) [1]: 1.08
glycan array binding signal (z-score) [2]: 1.77
glycan array binding signal (z-score) [3]: -0.291
glycan array binding signal (z-score) [4]: -0.351
glycan array binding signal (z-score) [5]: 0.044
glycan array binding signal (z-score) [6]: -0.256
glycan array binding signal (z-score) [7]: -0.836
glycan array binding signal (z-score) [8]: -0.439
glycan array binding signal (z-score) [9]: -0.046
glycan array binding signal (z-score) [10]: -0.438
glycan array binding signal (z-score) [11]: -0.445
glycan array binding signal (z-score) (Gal(b1-4)GlcNAc6P): 0.14
glycan array binding signal (z-score) (Gal(b1-6)Gal): -0.473
glycan array binding signal (z-score) (Gal3S(b1-3)GalNAc): 0.337
glycan array binding signal (z-score) (Gal3S(b1-3)GlcNAc): -0.01
glycan array binding signal (z-score) [12]: 0.441
glycan array binding signal (z-score) (Gal3S(b1-4)Glc): 0.163
glycan array binding signal (z-score) (Gal3S(b1-4)Glc6S): 0.304
glycan array binding signal (z-score) (Gal3S(b1-4)GlcNAc): -2.05
glycan array binding signal (z-score) [13]: 1.71
glycan array binding signal (z-score) [14]: 0.202
glycan array binding signal (z-score) [15]: 0.25
glycan array binding signal (z-score) (Gal3S4S(b1-4)GlcNAc): -0.9
glycan array binding signal (z-score) (Gal3S6S(b1-4)GlcNAc): -0.411
glycan array binding signal (z-score) (Gal3S6S(b1-4)GlcNAc6S): 0.06
glycan array binding signal (z-score) (Gal4S(b1-4)GlcNAc): -0.88
glycan array binding signal (z-score) (Gal4S6S(b1-4)GlcNAc): -0.328
glycan array binding signal (z-score) (Gal6P(b1-4)GlcNAc): -0.084
glycan array binding signal (z-score) (Gal6S(b1-3)GlcNAc): -0.641
glycan array binding signal (z-score) (Gal6S(b1-3)GlcNAc6S): 0.708
glycan array binding signal (z-score) (Gal6S(b1-4)Glc): -0.216
glycan array binding signal (z-score) (Gal6S(b1-4)Glc6S): 0.047
glycan array binding signal (z-score) (Gal6S(b1-4)GlcNAc): -0.425
glycan array binding signal (z-score) (Gal6S(b1-4)GlcNAc6S): 0.404
glycan array binding signal (z-score) (GalNAc(a1-3)Gal): -0.428
glycan array binding signal (z-score) (GalNAc(a1-3)GalNAc): -0.598
glycan array binding signal (z-score) [16]: -0.437
